Measured values published in PubChem BioAssay AID188 (DTP/NCI, 2004).
Shown are survivors of the treated group in tumour-free mice. Survivors were counted at the toxicity check, usually on the fifth day, unless a day is given; later deaths do not show. Schedule codes are those of the source, read here as Q, the interval in days (D) or hours (H), X, the number of doses. Some entries were tested several times; the values are given in rising order.

Test system: CD2F1 mice, nontumored, toxicity/survival
Test: NCI In Vivo Anticancer Drug Screen. Data for tumor model Nontumored Animals (Toxicity Test) in CD2F1 (CDF1) mice

## COc1cc([C@@H]2c3cc4c(cc3[C@@H](OC3OC5COC(C)OC5C(O)C3O)[C@H]3COC(=O)[C@H]23)OCO4)cc(OC)c1O (stereo partly specified)
dose: 1.0 mg/kg/injection, schedule: Q03HX008 (ip), vehicle: other
  survivor count: 8 of 8
dose: 1.0 mg/kg/injection, schedule: Q03HX016 (ip), vehicle: other
  survivor count: 8 of 8
dose: 1.0 mg/kg/injection, schedule: Q03HX024 (ip), vehicle: other
  survivor count: 7 of 8
dose: 2.0 mg/kg/injection, schedule: Q01DX009 (ip), vehicle: other
  survivor count: 8 of 8
dose: 2.0 mg/kg/injection, schedule: Q01DX009 (sc), vehicle: other
  survivor count: 8 of 8
dose: 2.0 mg/kg/injection, schedule: Q03HX008 (ip), vehicle: other
  survivor count: 7 of 8
dose: 2.0 mg/kg/injection, schedule: Q03HX016 (ip), vehicle: other
  survivor count: 8 of 8
dose: 2.0 mg/kg/injection, schedule: Q03HX024 (ip), vehicle: other
  survivor count: 8 of 8
dose: 4.0 mg/kg/injection, schedule: Q01DX009 (ip), vehicle: other
  survivor count: 8 of 8
dose: 4.0 mg/kg/injection, schedule: Q01DX009 (oral), vehicle: Klucel (hydroxypropylcellulose) (HPC)
  survivor count: 8 of 8
dose: 4.0 mg/kg/injection, schedule: Q01DX009 (sc), vehicle: other
  survivor count: 8 of 8
dose: 4.0 mg/kg/injection, schedule: Q03HX008 (ip), vehicle: other
  survivor count: 8 of 8
dose: 4.0 mg/kg/injection, schedule: Q03HX008 (oral), vehicle: Klucel (hydroxypropylcellulose) (HPC)
  survivor count: 8 of 8
dose: 4.0 mg/kg/injection, schedule: Q03HX016 (ip), vehicle: other
  survivor count: 8 of 8
dose: 4.0 mg/kg/injection, schedule: Q03HX016 (oral), vehicle: Klucel (hydroxypropylcellulose) (HPC)
  survivor count: 8 of 8
dose: 4.0 mg/kg/injection, schedule: Q03HX024 (ip), vehicle: other
  survivor count: 8 of 8
dose: 4.0 mg/kg/injection, schedule: Q03HX024 (oral), vehicle: Klucel (hydroxypropylcellulose) (HPC)
  survivor count: 7 of 8
dose: 5.0 mg/kg/injection, schedule: Q04DX002 (ip), vehicle: suspension in saline
  survivor count: 4 of 4
dose: 5.0 mg/kg/injection, schedule: Q04DX003 (ip), vehicle: saline with Tween-80
  survivor count: 4 of 4
dose: 8.0 mg/kg/injection, schedule: Q01DX001 (ip), vehicle: other
  survivor count: 8 of 8
dose: 8.0 mg/kg/injection, schedule: Q01DX001 (sc), vehicle: other
  survivor count: 8 of 8
dose: 8.0 mg/kg/injection, schedule: Q01DX009 (ip), vehicle: other
  survivor count: 8 of 8
dose: 8.0 mg/kg/injection, schedule: Q01DX009 (oral), vehicle: Klucel (hydroxypropylcellulose) (HPC)
  survivor count: 8 of 8
dose: 8.0 mg/kg/injection, schedule: Q01DX009 (sc), vehicle: other
  survivor count: 8 of 8
dose: 8.0 mg/kg/injection, schedule: Q03HX008 (ip), vehicle: other
  survivor count: 1 of 8
dose: 8.0 mg/kg/injection, schedule: Q03HX008 (oral), vehicle: Klucel (hydroxypropylcellulose) (HPC)
  survivor count: 8 of 8
dose: 8.0 mg/kg/injection, schedule: Q03HX016 (ip), vehicle: other
  survivor count: 1 of 8
dose: 8.0 mg/kg/injection, schedule: Q03HX016 (oral), vehicle: Klucel (hydroxypropylcellulose) (HPC)
  survivor count: 8 of 8
dose: 8.0 mg/kg/injection, schedule: Q03HX024 (ip), vehicle: other
  survivor count: 2 of 8
dose: 8.0 mg/kg/injection, schedule: Q03HX024 (oral), vehicle: Klucel (hydroxypropylcellulose) (HPC)
  survivor count: 7 of 8
dose: 8.0 mg/kg/injection, schedule: Q04DX003 (ip), vehicle: other
  survivor count: 8 of 8
dose: 8.0 mg/kg/injection, schedule: Q04DX003 (ip), vehicle: saline
  survivor count: 4 of 4
dose: 8.0 mg/kg/injection, schedule: Q08DX002 (ip), vehicle: other
  survivor count: 8 of 8
dose: 10.0 mg/kg/injection, schedule: Q04DX002 (ip), vehicle: suspension in saline
  survivor count: 4 of 4
dose: 10.0 mg/kg/injection, schedule: Q04DX003 (ip), vehicle: saline with Tween-80
  survivor count: 4 of 4
dose: 16.0 mg/kg/injection, schedule: Q01DX001 (ip), vehicle: other
  survivor count: 8 of 8
dose: 16.0 mg/kg/injection, schedule: Q01DX001 (sc), vehicle: other
  survivor count: 8 of 8
dose: 16.0 mg/kg/injection, schedule: Q01DX009 (ip), vehicle: other
  survivor count: 8 of 8
dose: 16.0 mg/kg/injection, schedule: Q01DX009 (oral), vehicle: Klucel (hydroxypropylcellulose) (HPC)
  survivor count: 7 of 8
dose: 16.0 mg/kg/injection, schedule: Q01DX009 (sc), vehicle: other
  survivor count: 8 of 8
dose: 16.0 mg/kg/injection, schedule: Q03HX008 (ip), vehicle: other
  survivor count: 2 of 8
dose: 16.0 mg/kg/injection, schedule: Q03HX008 (oral), vehicle: Klucel (hydroxypropylcellulose) (HPC)
  survivor count: 7 of 8
dose: 16.0 mg/kg/injection, schedule: Q03HX016 (ip), vehicle: other
  survivor count: 2 of 8
dose: 16.0 mg/kg/injection, schedule: Q03HX016 (oral), vehicle: Klucel (hydroxypropylcellulose) (HPC)
  survivor count: 7 of 8
dose: 16.0 mg/kg/injection, schedule: Q03HX024 (ip), vehicle: other
  survivor count: 0 of 8
dose: 16.0 mg/kg/injection, schedule: Q03HX024 (oral), vehicle: Klucel (hydroxypropylcellulose) (HPC)
  survivor count: 8 of 8
dose: 16.0 mg/kg/injection, schedule: Q04DX003 (ip), vehicle: other
  survivor count: 8 of 8
dose: 16.0 mg/kg/injection, schedule: Q04DX003 (ip), vehicle: saline
  survivor count: 4 of 4
dose: 16.0 mg/kg/injection, schedule: Q08DX002 (ip), vehicle: other
  survivor count: 8 of 8
dose: 20.0 mg/kg/injection, schedule: Q04DX002 (ip), vehicle: suspension in saline
  survivor count: 4 of 4
dose: 20.0 mg/kg/injection, schedule: Q04DX003 (ip), vehicle: saline with Tween-80
  survivor count: 4 of 4
dose: 32.0 mg/kg/injection, schedule: Q01DX001 (ip), vehicle: other
  survivor count: 8 of 8
dose: 32.0 mg/kg/injection, schedule: Q01DX001 (oral), vehicle: Klucel (hydroxypropylcellulose) (HPC)
  survivor count: 8 of 8
dose: 32.0 mg/kg/injection, schedule: Q01DX001 (sc), vehicle: other
  survivor count: 8 of 8
dose: 32.0 mg/kg/injection, schedule: Q01DX009 (ip), vehicle: other
  survivor count: 7 of 8
dose: 32.0 mg/kg/injection, schedule: Q01DX009 (oral), vehicle: Klucel (hydroxypropylcellulose) (HPC)
  survivor count: 8 of 8
dose: 32.0 mg/kg/injection, schedule: Q01DX009 (sc), vehicle: other
  survivor count: 7 of 8
dose: 32.0 mg/kg/injection, schedule: Q03HX003 (oral), vehicle: Klucel (hydroxypropylcellulose) (HPC)
  survivor count: 8 of 8
dose: 32.0 mg/kg/injection, schedule: Q03HX008 (ip), vehicle: other
  survivor count: 1 of 8
dose: 32.0 mg/kg/injection, schedule: Q03HX008 (oral), vehicle: Klucel (hydroxypropylcellulose) (HPC)
  survivor count: 7 of 8
dose: 32.0 mg/kg/injection, schedule: Q03HX016 (oral), vehicle: Klucel (hydroxypropylcellulose) (HPC)
  survivor count: 8 of 8
dose: 32.0 mg/kg/injection, schedule: Q03HX024 (oral), vehicle: Klucel (hydroxypropylcellulose) (HPC)
  survivor count: 8 of 8
dose: 32.0 mg/kg/injection, schedule: Q04DX003 (ip), vehicle: other
  survivor count: 8 of 8
dose: 32.0 mg/kg/injection, schedule: Q04DX003 (ip), vehicle: saline
  survivor count: 0 of 2 and 4 of 4
dose: 32.0 mg/kg/injection, schedule: Q08DX002 (ip), vehicle: other
  survivor count: 8 of 8
dose: 32.0 mg/kg/injection, schedule: Q08DX002 (oral), vehicle: Klucel (hydroxypropylcellulose) (HPC)
  survivor count: 8 of 8
dose: 40.0 mg/kg/injection, schedule: Q04DX002 (ip), vehicle: suspension in saline
  survivor count: 4 of 4
dose: 40.0 mg/kg/injection, schedule: Q04DX003 (ip), vehicle: saline with Tween-80
  survivor count: 4 of 4
dose: 64.0 mg/kg/injection, schedule: Q01DX001 (ip), vehicle: other
  survivor count: 8 of 8
dose: 64.0 mg/kg/injection, schedule: Q01DX001 (oral), vehicle: Klucel (hydroxypropylcellulose) (HPC)
  survivor count: 8 of 8
dose: 64.0 mg/kg/injection, schedule: Q01DX001 (sc), vehicle: other
  survivor count: 8 of 8
dose: 64.0 mg/kg/injection, schedule: Q01DX009 (oral), vehicle: Klucel (hydroxypropylcellulose) (HPC)
  survivor count: 8 of 8
dose: 64.0 mg/kg/injection, schedule: Q01DX009 (oral), vehicle: other
  survivor count: 8 of 8
dose: 64.0 mg/kg/injection, schedule: Q03HX003 (oral), vehicle: Klucel (hydroxypropylcellulose) (HPC)
  survivor count: 8 of 8
dose: 64.0 mg/kg/injection, schedule: Q03HX008 (oral), vehicle: Klucel (hydroxypropylcellulose) (HPC)
  survivor count: 8 of 8
dose: 64.0 mg/kg/injection, schedule: Q03HX016 (oral), vehicle: Klucel (hydroxypropylcellulose) (HPC)
  survivor count: 7 of 8
dose: 64.0 mg/kg/injection, schedule: Q03HX024 (oral), vehicle: Klucel (hydroxypropylcellulose) (HPC)
  survivor count: 6 of 8
dose: 64.0 mg/kg/injection, schedule: Q04DX003 (ip), vehicle: other
  survivor count: 8 of 8
dose: 64.0 mg/kg/injection, schedule: Q04DX003 (ip), vehicle: saline
  survivor count: 4 of 4
dose: 64.0 mg/kg/injection, schedule: Q08DX002 (ip), vehicle: other
  survivor count: 8 of 8
dose: 64.0 mg/kg/injection, schedule: Q08DX002 (oral), vehicle: Klucel (hydroxypropylcellulose) (HPC)
  survivor count: 8 of 8
dose: 128.0 mg/kg/injection, schedule: Q01DX001 (ip), vehicle: other
  survivor count: 7 of 8
dose: 128.0 mg/kg/injection, schedule: Q01DX001 (oral), vehicle: Klucel (hydroxypropylcellulose) (HPC)
  survivor count: 8 of 8
dose: 128.0 mg/kg/injection, schedule: Q01DX001 (oral), vehicle: other
  survivor count: 8 of 8
dose: 128.0 mg/kg/injection, schedule: Q01DX001 (sc), vehicle: other
  survivor count: 8 of 8
dose: 128.0 mg/kg/injection, schedule: Q01DX009 (oral), vehicle: Klucel (hydroxypropylcellulose) (HPC)
  survivor count: 8 of 8
dose: 128.0 mg/kg/injection, schedule: Q01DX009 (oral), vehicle: other
  survivor count: 8 of 8
dose: 128.0 mg/kg/injection, schedule: Q03HX003 (oral), vehicle: Klucel (hydroxypropylcellulose) (HPC)
  survivor count: 8 of 8
dose: 128.0 mg/kg/injection, schedule: Q03HX008 (oral), vehicle: Klucel (hydroxypropylcellulose) (HPC)
  survivor count: 8 of 8
dose: 128.0 mg/kg/injection, schedule: Q03HX016 (oral), vehicle: Klucel (hydroxypropylcellulose) (HPC)
  survivor count: 7 of 8
dose: 128.0 mg/kg/injection, schedule: Q03HX024 (oral), vehicle: Klucel (hydroxypropylcellulose) (HPC)
  survivor count: 8 of 8
dose: 128.0 mg/kg/injection, schedule: Q04DX003 (ip), vehicle: other
  survivor count: 6 of 8
dose: 128.0 mg/kg/injection, schedule: Q08DX002 (ip), vehicle: other
  survivor count: 8 of 8
dose: 128.0 mg/kg/injection, schedule: Q08DX002 (oral), vehicle: Klucel (hydroxypropylcellulose) (HPC)
  survivor count: 8 of 8
dose: 256.0 mg/kg/injection, schedule: Q01DX001 (ip), vehicle: other
  survivor count: 2 of 8
dose: 256.0 mg/kg/injection, schedule: Q01DX001 (oral), vehicle: Klucel (hydroxypropylcellulose) (HPC)
  survivor count: 8 of 8
dose: 256.0 mg/kg/injection, schedule: Q01DX001 (oral), vehicle: other
  survivor count: 8 of 8
dose: 256.0 mg/kg/injection, schedule: Q01DX001 (sc), vehicle: other
  survivor count: 6 of 8
dose: 256.0 mg/kg/injection, schedule: Q01DX009 (oral), vehicle: other
  survivor count: 8 of 8
dose: 256.0 mg/kg/injection, schedule: Q03HX003 (oral), vehicle: Klucel (hydroxypropylcellulose) (HPC)
  survivor count: 8 of 8
dose: 256.0 mg/kg/injection, schedule: Q08DX002 (oral), vehicle: Klucel (hydroxypropylcellulose) (HPC)
  survivor count: 8 of 8
dose: 512.0 mg/kg/injection, schedule: Q01DX001 (oral), vehicle: Klucel (hydroxypropylcellulose) (HPC)
  survivor count: 8 of 8
dose: 512.0 mg/kg/injection, schedule: Q01DX001 (oral), vehicle: other
  survivor count: 8 of 8
dose: 512.0 mg/kg/injection, schedule: Q01DX009 (oral), vehicle: other
  survivor count: 8 of 8
dose: 512.0 mg/kg/injection, schedule: Q03HX003 (oral), vehicle: Klucel (hydroxypropylcellulose) (HPC)
  survivor count: 8 of 8
dose: 512.0 mg/kg/injection, schedule: Q08DX002 (oral), vehicle: Klucel (hydroxypropylcellulose) (HPC)
  survivor count: 8 of 8
dose: 1024.0 mg/kg/injection, schedule: Q01DX001 (oral), vehicle: Klucel (hydroxypropylcellulose) (HPC)
  survivor count: 8 of 8
dose: 1024.0 mg/kg/injection, schedule: Q01DX001 (oral), vehicle: other
  survivor count: 8 of 8
dose: 1024.0 mg/kg/injection, schedule: Q01DX009 (oral), vehicle: other
  survivor count: 8 of 8
dose: 1024.0 mg/kg/injection, schedule: Q03HX003 (oral), vehicle: Klucel (hydroxypropylcellulose) (HPC)
  survivor count: 8 of 8
dose: 1024.0 mg/kg/injection, schedule: Q08DX002 (oral), vehicle: Klucel (hydroxypropylcellulose) (HPC)
  survivor count: 8 of 8
